Source: article PMC7819943, “Rice protein-binding microarrays: a tool to detect cis-acting elements near promoter regions in rice”
This is one part of the list.

Biological target: T1, OsSMF1 (Oryza sativa, UniProt Q6ZLB0 1-436)
T1 sequence: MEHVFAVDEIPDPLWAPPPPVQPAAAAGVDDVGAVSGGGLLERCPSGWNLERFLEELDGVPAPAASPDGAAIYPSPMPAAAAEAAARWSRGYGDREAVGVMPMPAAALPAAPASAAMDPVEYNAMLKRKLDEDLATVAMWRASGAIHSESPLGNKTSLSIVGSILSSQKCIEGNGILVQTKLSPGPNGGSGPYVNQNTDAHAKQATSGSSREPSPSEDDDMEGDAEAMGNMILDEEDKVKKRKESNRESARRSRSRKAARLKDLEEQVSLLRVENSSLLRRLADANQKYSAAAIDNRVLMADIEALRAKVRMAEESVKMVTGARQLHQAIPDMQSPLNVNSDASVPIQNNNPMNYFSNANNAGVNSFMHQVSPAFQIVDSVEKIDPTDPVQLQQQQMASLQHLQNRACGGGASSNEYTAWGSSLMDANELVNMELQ
Assay: protein-binding microarray (RPBM); PBS, 2% BSA, 51.3 ng/ul salmon testes DNA, 50 uM zinc acetate, 200 nM TF, 25 C, 1 h; high values mean tight binding
Settings: protein: recombinant; tags: N-terminal polyhistidine and DsRed monomer fusion (pET32a); chain copies: 2; label: CyDye5-dUTP incorporated in the synthesized complementary strand; 3' TTTTT single-stranded linker to array surface; dsDNA, one strand shown
Method in brief: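 Polyhistidine-tagged DsRed fusions of transcription factors, joined at the N-terminus, were expressed in E. coli BL21-CodonPlus and isolated on Ni–NTA. They were incubated at 200 nM for 1 h at 25 °C on a custom Agilent array, double-stranded and BSA-blocked, in PBS with 2% BSA, salmon testes DNA and 50 µM zinc acetate. The binding signal is per-feature fluorescence intensity (arbitrary units) read on an Axon 4000B scanner after washing.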

Sequence	binding signal
AGATACTTGAAGGAGTCACGGATATTGATTTGGTCATCAACGGAGTCACCTAGTGCAG	3220 fluorescence intensity (a.u.)
TGCATGGCATTAAATATGAGCAATTCAGGAATTCTGTCAGCGGAGTCACCTAGTGCAG	16000 fluorescence intensity (a.u.)
ATCAGCTAATCTCAAGACTTCGAAGCCGATGACTACTCCGCGGAGTCACCTAGTGCAG	3750 fluorescence intensity (a.u.)
GGTATCTTGTGATGTCAGACTGATCGGTTTCCCTTGAGACCGGAGTCACCTAGTGCAG	30000 fluorescence intensity (a.u.)
CCTTGGACACCATTAGTTTGTACGTGTTTATACGATATCGCGGAGTCACCTAGTGCAG	3320 fluorescence intensity (a.u.)
CTGGTTCTCGTATCATCCTTCGCAAAACATCAGCTGAGTGCGGAGTCACCTAGTGCAG	3850 fluorescence intensity (a.u.)
GCCGGTGGTCTTCCTCGTGCCGAGCCGACGCCACCGCCGGCGGAGTCACCTAGTGCAG	3230 fluorescence intensity (a.u.)
CTCAAGGAGGGAGGAATGTCACGCCAGAGCATTCGTCATCCGGAGTCACCTAGTGCAG	3330 fluorescence intensity (a.u.)
TAGACACACACACGCCAATCACCCATCTAATATTCACATCCGGAGTCACCTAGTGCAG	6190 fluorescence intensity (a.u.)
ACTAACATATTGGTGCCACCAACACATAGGCATCACTGTGCGGAGTCACCTAGTGCAG	3530 fluorescence intensity (a.u.)
ACCAGATTCACCGTGATTAGTCTCACACTTAATAAATCGACGGAGTCACCTAGTGCAG	3370 fluorescence intensity (a.u.)
CATGTCGTCGTCGTGGTGGTGGTGGTGGTGGTGGGGCGGGCGGAGTCACCTAGTGCAG	11700 fluorescence intensity (a.u.)
AAAACAACCAGAATAACAGAGAGAGGGGTCGCTGTACCCGCGGAGTCACCTAGTGCAG	3270 fluorescence intensity (a.u.)
ACCACCGCTCCAATCACTCACGCCGCCGTGGCCGTGCATCCGGAGTCACCTAGTGCAG	3550 fluorescence intensity (a.u.)
GGATCCCTTTCAATGGAATGGAACGTGACGCATCGAGAAACGGAGTCACCTAGTGCAG	3760 fluorescence intensity (a.u.)
CCGCGAAAATATCACATCACACACACACGCAAACGCAAGTCGGAGTCACCTAGTGCAG	3260 fluorescence intensity (a.u.)
ACGTGCCAGTCAGTTTGATCCTGCAACTGACAAGATATGCCGGAGTCACCTAGTGCAG	16600 fluorescence intensity (a.u.)
TATCTGTCGACAGATTTCGATTTCTTCACCGTCAAAATGTCGGAGTCACCTAGTGCAG	3450 fluorescence intensity (a.u.)
ATAAAGTTTGTAGTCATCGTCGATATCTTTCTAACGCCGCCGGAGTCACCTAGTGCAG	4060 fluorescence intensity (a.u.)
TTATTTTATCTCGTGCTCATGACTGAATCATTTAGCTACCCGGAGTCACCTAGTGCAG	3720 fluorescence intensity (a.u.)
GAGCAGCTGAAACCAACAGCTCGGCGAGTTCCGACGTGGACGGAGTCACCTAGTGCAG	3660 fluorescence intensity (a.u.)
CGTCGACCACCACCACGCTCTTGCCCCTGATGACGCCGTGCGGAGTCACCTAGTGCAG	6870 fluorescence intensity (a.u.)
GCTTTCCCTAGCGTTTGTTTCCTCTGTGCAGCAACCGCAGCGGAGTCACCTAGTGCAG	22300 fluorescence intensity (a.u.)
ACCACGCACACACCACCTGCTCCCGTCCACGCCACGGCGCCGGAGTCACCTAGTGCAG	5500 fluorescence intensity (a.u.)
TATTTGTGCATCTTCTTTACTGAATCATCGTATTCACATGCGGAGTCACCTAGTGCAG	5150 fluorescence intensity (a.u.)
ACTATGGATATCTGTTTTAGCTGACATGGCATCCTACTCACGGAGTCACCTAGTGCAG	8140 fluorescence intensity (a.u.)
AGGCGTCGAGAAACGAATACACCGTGGAGATGTGGACGAACGGAGTCACCTAGTGCAG	3290 fluorescence intensity (a.u.)

2 entries from above in another layout.
CGTCGACCACCACCACGCTCTTGCCCCTGATGACGCCGTGCGGAGTCACCTAGTGCAG
  binding signal: 6870 fluorescence intensity (a.u.)
GCTTTCCCTAGCGTTTGTTTCCTCTGTGCAGCAACCGCAGCGGAGTCACCTAGTGCAG
  binding signal: 22300 fluorescence intensity (a.u.)

The results go on:

Sequence	binding signal
TTTAGTACTAGTGTACTACATAAATGTCTCATCTCCTCCACGGAGTCACCTAGTGCAG	3960 fluorescence intensity (a.u.)
GTCGCGGATGGTGGAAAGGGAGGCAGGGGTTGGGCCTTGGCGGAGTCACCTAGTGCAG	3670 fluorescence intensity (a.u.)
ATTGTGATCAGGAAGATATCCAAATCTGTTAAAGAAAACACGGAGTCACCTAGTGCAG	25700 fluorescence intensity (a.u.)
ATACACACGCATGCGCTTTGGCACGTTGAAGAGGACGAAGCGGAGTCACCTAGTGCAG	9660 fluorescence intensity (a.u.)
AGGATTAGGTGAAGTTTCTGTCACATCACATGATAGTCATCGGAGTCACCTAGTGCAG	4260 fluorescence intensity (a.u.)
CTAAGGGGCTTTGTTCGGCAAACAAAGTTAGGAACAAATCCGGAGTCACCTAGTGCAG	4640 fluorescence intensity (a.u.)
AGTTGTGTGACGTCGTCAGCTAGCTAGCTGCCACTGAGCCCGGAGTCACCTAGTGCAG	6870 fluorescence intensity (a.u.)
CACATGGCTGACGGCCCAAACCATCAGACTCAACCATGGCCGGAGTCACCTAGTGCAG	3180 fluorescence intensity (a.u.)
TGGATACTTGGATGACTGTACTGTACTTGCCTTTCTACTTCGGAGTCACCTAGTGCAG	7720 fluorescence intensity (a.u.)
TCATGTGAAGCTTAATTAGTTAGATAGGTCACCGCTCACCCGGAGTCACCTAGTGCAG	3340 fluorescence intensity (a.u.)
ATGTCGCACCCGCTTGTCCCCTCCTGACTTCGATTCGCCGCGGAGTCACCTAGTGCAG	14600 fluorescence intensity (a.u.)
AGTTTCACATAATTTTGAATCGTTAGATCTATTACAAGATCGGAGTCACCTAGTGCAG	15600 fluorescence intensity (a.u.)
GGCAGCCGTGTGACAGTGGTAGGGAGTGTCATCGCCGACGCGGAGTCACCTAGTGCAG	4320 fluorescence intensity (a.u.)
CCATCTCCACCGAGTCACACCTTGACTTAACACGTCACCTCGGAGTCACCTAGTGCAG	22200 fluorescence intensity (a.u.)
GAGCCTAGTCGAGTTGGTCACGAGTCAAGCCAAGTCAAGTCGGAGTCACCTAGTGCAG	3670 fluorescence intensity (a.u.)
TGCCCTCTCCCGCTGATTGGAGTAGCGTTACCTGTCGTACCGGAGTCACCTAGTGCAG	3550 fluorescence intensity (a.u.)
GGCGGTTTTGGCCGACGTGGCGCCTATATGGCTAATTTGACGGAGTCACCTAGTGCAG	9270 fluorescence intensity (a.u.)
AAACACGCGGCATGGCGTGCCGCGATGCAGTCGGAGATGGCGGAGTCACCTAGTGCAG	48600 fluorescence intensity (a.u.)
AATAAGCCGCCTCCCGCGTGTCCACCCCTCTTGCCTCTGCCGGAGTCACCTAGTGCAG	4110 fluorescence intensity (a.u.)
ATACTAATAGTATAGTAAGCAACTATTGTATGAATTGGCTCGGAGTCACCTAGTGCAG	3740 fluorescence intensity (a.u.)
GGCCTAACTGTCCTATGCGCTAGTCGCCTCCGACCAAACGCGGAGTCACCTAGTGCAG	3350 fluorescence intensity (a.u.)
GTGGCGTTGGCGGGGCCCGCGTGTGGCTACGCAGCTCCGGCGGAGTCACCTAGTGCAG	3170 fluorescence intensity (a.u.)
GAAGCTTCATCGGAGCCACTATGACGTTATCTGCTTTCGTCGGAGTCACCTAGTGCAG	4870 fluorescence intensity (a.u.)
ATGCCATGTCATGTTGAATTTTGGATCGGTGTTGGTATATCGGAGTCACCTAGTGCAG	8930 fluorescence intensity (a.u.)
AAGAAAGCGGCCTTCTCCTCCAGCTCCACCTCACGCGCGCCGGAGTCACCTAGTGCAG	5690 fluorescence intensity (a.u.)
CATTTTACTAGTTTTGATTATATGACATCTGCAGATTTCGCGGAGTCACCTAGTGCAG	4360 fluorescence intensity (a.u.)
CCGCACAAGAATGTCGTGTCCTGGACGACCGTCGTCGCTGCGGAGTCACCTAGTGCAG	3810 fluorescence intensity (a.u.)
